PubChem BioAssay AID1224827, NIAID | 2016
Purpose: 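Identify regulators of the macrophage TNF-alpha response to bacterial LPS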 (follow-up of hits). System: RAW264.7 G9 mouse macrophage reporter clone. Reagent: single siRNA against mouse genes, 100 nM siRNA. Time to read-out: siRNA for 2 days, then LPS about 16 h. Treatment: bacterial lipopolysaccharide (LPS), 10 ng/ml, cells fixed after overnight (about 16 h) stimulation. Measured: 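TNF promoter reporter red fluorescence in nuclei, background subtracted, normalised per plate and to non-targeting control siRNA, as z-scores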. Scale: TNF reporter z-score, mean: higher = stronger Tnf promoter reporter signal. Hit rule: 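An siRNA is called active when its mean z-score over replicates is at least +2 or at most -2; control wells get no call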.
Shown is a random part of about 3,800 deposited reagents. Over the whole deposit, about 2,200 (57%) got an active call. 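Active means a strong reporter change in either direction; calls are per siRNA, not per gene; qiagen siRNAs gave weaker effects.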 Reagents against one gene are numbered here. Not all columns of the deposit are shown.

The opening 7 entries, to show the layout:
gene	siRNA no.	TNF reporter z-score, mean	Call
Crebl2	1	-1.92	inactive
Crebl2	2	-2.95	active
Crebl2	3	-4.48	active
Crebl2	4	1.32	inactive
Crebl2	5	0.0253	inactive
Crebl2	6	-0.742	inactive
Ogt	1	-2.16	active

The listing, repeating the preview:
gene	siRNA no.	TNF reporter z-score, mean	Call
Crebl2	1	-1.92	inactive
Crebl2	2	-2.95	active
Crebl2	3	-4.48	active
Crebl2	4	1.32	inactive
Crebl2	5	0.0253	inactive
Crebl2	6	-0.742	inactive
Ogt	1	-2.16	active
Ogt	2	-3.57	active
Ogt	3	-3.8	active
Ogt	4	0.307	inactive
Ogt	5	-0.164	inactive
Ogt	6	-0.475	inactive
Dynlrb2	1	-0.969	inactive
Dynlrb2	2	-4.62	active
Dynlrb2	3	-4.71	active
Dynlrb2	4	3.46	active
Dynlrb2	5	-1.27	inactive
Dynlrb2	6	-1.67	inactive
Trim2	1	0.76	inactive
Trim2	2	-3.74	active
Trim2	3	-5.95	active
Trim2	4	3.35	active
Trim2	5	-0.00315	inactive
Trim2	6	-2.24	active
Lyn	1	0.608	inactive
Lyn	2	-1.41	inactive
Lyn	3	-3.57	active
Lyn	4	1.72	inactive
Lyn	5	1.13	inactive
Lyn	6	-0.939	inactive
Rpl13a	1	0.392	inactive
Rpl13a	2	-2	inactive
Rpl13a	3	-2.86	active
Rpl13a	4	-1.74	inactive
Rpl13a	5	-2.54	active
Rpl13a	6	-2.52	active
Adam10	1	4.72	active
Adam10	2	0.225	inactive
Adam10	3	-4.13	active
Adam10	4	-0.221	inactive
Adam10	5	-0.88	inactive
Adam10	6	-3.35	active
Aqp7	1	-2.4	active
Aqp7	2	-3.61	active
Aqp7	3	-3.63	active
Aqp7	4	3.1	active
Aqp7	5	-0.806	inactive
Aqp7	6	-2.37	active
Usp8	1	4.4	active
Usp8	2	-0.905	inactive
Usp8	3	-4.41	active
Usp8	4	5.66	active
Usp8	5	-0.185	inactive
Usp8	6	-1.61	inactive
Supt6	1	-1.95	inactive
Supt6	2	-2.36	active
Supt6	3	-2.47	active
Supt6	4	-3.09	active
Supt6	5	-3.46	active
Supt6	6	-3.93	active
